Molecules are shown by their SMILES. This is one part of the list. Some of these compounds have results that are not shown, active ones among them.

The assay in a line: NTR1-driven beta-arrestin-GFP spot formation – imaging, U2OS cells, high content, primary screen (AID 493036) (AID 493036). As to conditions: agonist mode, measured here: cell count, cytotoxicity flag, at 20 µM.
As for `O=C(OC1CN2CCC1CC2)C(CO)(c1ccccc1)c1ccccc1` (centres undefined), the cell count was found to be 38 cells.
Molecule `COc1ccc(Br)c(C(=O)NCC2(N3CCCCC3)CCCCC2)c1` yielded a cell count of 69 cells.
In the case of `CN(C)c1cccc(C(=O)NCC2(N(C)C)CCCCC2)c1`, the cell count was found to be 41 cells.
`CC(C)Oc1ccc(C(=O)NCC2(N(C)C)CCCCC2)cc1` had a cell count of 74 cells.
With `CN(C)C1(CNC(=O)c2ccc(Br)cc2)CCCCC1`, the cell count is 88 cells.
With `COc1cc(C(=O)NCC2(N(C)C)CCCCC2)c([N+](=O)[O-])cc1OC`, the cell count was 91 cells.
`COc1ccc(Cl)cc1C(=O)NCC1(N(C)C)CCCCC1` returned a cell count of 94 cells.
Take `COc1cccc(C(=O)NCC2(N3CCCCC3)CCCCC2)c1`: the cell count is 60 cells.
The figure for `O=C(NCC1(N2CCCCC2)CCCCC1)c1cccc(Cl)c1` is 57 cells; for `CN(C)c1ccc(C(=O)NCC2(N(C)C)CCCCC2)cc1` it is 44 cells.
As to `CN(C)C1CCCC1OC(=O)C(O)(c1ccccc1)c1ccccc1` (centres undefined), the cell count is 50 cells.
The figure for `Cc1ccccc1C(=O)NCC1(N2CCCCC2)CCCCC1` is 43 cells; for `O=C(NCC1(N2CCCCC2)CCCCC1)c1cc(F)c(F)cc1Cl` it is 54 cells; for `C=CCN1CCN(CCOC(=O)C(O)(c2ccccc2)c2ccccc2)CC1` it is 50 cells.
Then `O=C(NCC1(N2CCCCC2)CCCCC1)c1cccc(Br)c1`, with 36 cells; and `CCN1CCCC(OC(=O)C2(O)c3ccccc3C=Cc3ccccc32)C1` (centres undefined), with 67 cells; and `Cc1cc(C(=O)NCC2(N3CCCCC3)CCCCC2)ccc1[N+](=O)[O-]`, with 52 cells.
The figure for `COc1ccc(C(=O)NCC2(N(C)C)CCCCC2)cc1` is 49 cells.
On to `O=C(NCC1(N2CCCCC2)CCCCC1)c1cc([N+](=O)[O-])ccc1Cl`, for which the cell count is 52 cells.
`CN1[C@@H]2CC[C@H]1CC(OC(=O)C(O)(c1ccccc1)c1ccccc1)C2` (some centres undefined): the cell count amounted to 59 cells.
The figure for `CC(C)N1C(=O)CC2(CCN(CCOC(=O)C(O)(c3ccccc3)c3ccccc3)CC2)C1=O` is 39 cells.
The figure for `COc1cc(SC)ccc1C(=O)NCC1(N(C)C)CCCCC1` is 90 cells; for `CCN(CC)CC(C)C(C)OC(=O)C(O)(c1ccccc1)c1ccccc1` (centres undefined) it is 55 cells; for `Cc1ccc(C(=O)NCC2(N3CCCCC3)CCCCC2)cc1` it is 56 cells.

The values are drawn from PubChem BioAssay AID493036 (Sanford-Burnham Center for Chemical Genomics, 2011).
